Experimental data reported in article PMC5376188.
No constants are given. Whether binding was seen depends on the method and setting. Binding seen in cells or lysates may run through a third protein. Some binding calls cover weakened binding; strength is not graded here.

Sequences of proteins named here, by UniProt entry; tags and fusion partners are left off. A change or cut given only in a name is not applied to a line headed by its entry.
UniProt Q00944: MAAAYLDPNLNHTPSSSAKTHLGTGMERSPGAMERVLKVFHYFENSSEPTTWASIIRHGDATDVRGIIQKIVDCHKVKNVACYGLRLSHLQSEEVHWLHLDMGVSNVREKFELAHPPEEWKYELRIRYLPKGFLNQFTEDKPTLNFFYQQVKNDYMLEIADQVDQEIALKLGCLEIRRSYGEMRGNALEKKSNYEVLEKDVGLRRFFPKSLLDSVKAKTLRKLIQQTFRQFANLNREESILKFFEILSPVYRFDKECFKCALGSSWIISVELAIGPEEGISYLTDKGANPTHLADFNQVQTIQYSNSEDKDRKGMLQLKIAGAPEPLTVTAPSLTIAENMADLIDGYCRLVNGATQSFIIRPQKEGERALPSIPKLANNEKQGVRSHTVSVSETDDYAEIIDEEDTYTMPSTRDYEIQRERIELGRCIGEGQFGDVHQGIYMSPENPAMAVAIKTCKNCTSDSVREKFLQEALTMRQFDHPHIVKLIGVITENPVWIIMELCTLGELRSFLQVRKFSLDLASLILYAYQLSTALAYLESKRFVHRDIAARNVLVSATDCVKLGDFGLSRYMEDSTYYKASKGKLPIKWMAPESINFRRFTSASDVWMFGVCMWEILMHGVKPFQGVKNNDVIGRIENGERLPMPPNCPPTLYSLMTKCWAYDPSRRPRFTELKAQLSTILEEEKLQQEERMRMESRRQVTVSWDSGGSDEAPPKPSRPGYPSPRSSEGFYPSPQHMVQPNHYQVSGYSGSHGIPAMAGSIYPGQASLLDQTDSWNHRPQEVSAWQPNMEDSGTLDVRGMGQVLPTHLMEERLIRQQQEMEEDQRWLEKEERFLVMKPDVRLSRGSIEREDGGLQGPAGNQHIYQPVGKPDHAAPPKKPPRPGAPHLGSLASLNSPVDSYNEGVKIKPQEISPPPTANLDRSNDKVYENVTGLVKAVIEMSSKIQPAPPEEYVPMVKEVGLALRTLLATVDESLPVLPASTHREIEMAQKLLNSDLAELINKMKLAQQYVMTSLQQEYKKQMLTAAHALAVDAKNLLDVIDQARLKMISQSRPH
UniProt O08788: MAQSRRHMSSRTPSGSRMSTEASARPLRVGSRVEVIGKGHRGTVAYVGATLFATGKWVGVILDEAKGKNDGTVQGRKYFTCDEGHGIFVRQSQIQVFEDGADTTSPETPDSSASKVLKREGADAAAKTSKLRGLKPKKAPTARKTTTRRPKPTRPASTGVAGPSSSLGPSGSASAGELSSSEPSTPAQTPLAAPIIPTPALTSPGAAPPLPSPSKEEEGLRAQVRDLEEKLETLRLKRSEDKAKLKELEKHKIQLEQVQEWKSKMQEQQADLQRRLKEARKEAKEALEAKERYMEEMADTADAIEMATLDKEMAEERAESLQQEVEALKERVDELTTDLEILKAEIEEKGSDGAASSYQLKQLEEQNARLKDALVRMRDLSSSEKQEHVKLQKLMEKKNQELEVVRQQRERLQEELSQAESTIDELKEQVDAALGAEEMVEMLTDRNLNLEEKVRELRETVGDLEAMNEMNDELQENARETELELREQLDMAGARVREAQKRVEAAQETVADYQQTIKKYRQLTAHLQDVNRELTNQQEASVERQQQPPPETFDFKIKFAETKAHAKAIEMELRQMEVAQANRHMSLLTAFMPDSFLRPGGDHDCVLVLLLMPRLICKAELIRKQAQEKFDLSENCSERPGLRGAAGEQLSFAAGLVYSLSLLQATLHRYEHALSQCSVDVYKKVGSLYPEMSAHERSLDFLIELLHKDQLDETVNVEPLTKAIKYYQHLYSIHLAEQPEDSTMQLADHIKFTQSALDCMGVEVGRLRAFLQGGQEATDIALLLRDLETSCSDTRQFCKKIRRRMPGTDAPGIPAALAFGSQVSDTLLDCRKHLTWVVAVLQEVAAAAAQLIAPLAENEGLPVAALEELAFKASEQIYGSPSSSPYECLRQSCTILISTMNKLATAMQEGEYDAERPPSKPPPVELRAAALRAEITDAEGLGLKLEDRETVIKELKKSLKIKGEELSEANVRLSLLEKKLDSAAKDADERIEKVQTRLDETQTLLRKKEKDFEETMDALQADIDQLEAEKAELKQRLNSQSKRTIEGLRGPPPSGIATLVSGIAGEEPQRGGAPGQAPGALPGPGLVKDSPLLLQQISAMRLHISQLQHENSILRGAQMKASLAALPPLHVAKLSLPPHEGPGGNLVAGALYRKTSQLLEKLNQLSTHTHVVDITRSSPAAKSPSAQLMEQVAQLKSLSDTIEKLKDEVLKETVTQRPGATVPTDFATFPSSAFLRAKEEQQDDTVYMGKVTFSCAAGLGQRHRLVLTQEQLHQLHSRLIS
UniProt Q9CQW9: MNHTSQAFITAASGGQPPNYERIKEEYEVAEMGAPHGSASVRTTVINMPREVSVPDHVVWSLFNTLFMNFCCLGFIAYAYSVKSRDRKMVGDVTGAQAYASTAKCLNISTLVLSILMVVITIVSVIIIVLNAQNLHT

How the values were obtained:
[1] = target: T1, Ambra1 (activating molecule in Beclin1-regulated autophagy) (mouse (endogenous in SCC cells and MEFs)) (UniProt A2AH22); assay: co-IP; 1 mg lysate (RIPA buffer) of SCC FAK-WT, FAK P875A/P881A or FAK -/- cells, or of Ambra1 +/+ and -/- MEFs, with antibody or antibody-agarose at 4°C overnight; beads washed three times in lysis buffer and once in 0.6 M LiCl; western blot; in some experiments after IFITM3 siRNA
T1 sequence: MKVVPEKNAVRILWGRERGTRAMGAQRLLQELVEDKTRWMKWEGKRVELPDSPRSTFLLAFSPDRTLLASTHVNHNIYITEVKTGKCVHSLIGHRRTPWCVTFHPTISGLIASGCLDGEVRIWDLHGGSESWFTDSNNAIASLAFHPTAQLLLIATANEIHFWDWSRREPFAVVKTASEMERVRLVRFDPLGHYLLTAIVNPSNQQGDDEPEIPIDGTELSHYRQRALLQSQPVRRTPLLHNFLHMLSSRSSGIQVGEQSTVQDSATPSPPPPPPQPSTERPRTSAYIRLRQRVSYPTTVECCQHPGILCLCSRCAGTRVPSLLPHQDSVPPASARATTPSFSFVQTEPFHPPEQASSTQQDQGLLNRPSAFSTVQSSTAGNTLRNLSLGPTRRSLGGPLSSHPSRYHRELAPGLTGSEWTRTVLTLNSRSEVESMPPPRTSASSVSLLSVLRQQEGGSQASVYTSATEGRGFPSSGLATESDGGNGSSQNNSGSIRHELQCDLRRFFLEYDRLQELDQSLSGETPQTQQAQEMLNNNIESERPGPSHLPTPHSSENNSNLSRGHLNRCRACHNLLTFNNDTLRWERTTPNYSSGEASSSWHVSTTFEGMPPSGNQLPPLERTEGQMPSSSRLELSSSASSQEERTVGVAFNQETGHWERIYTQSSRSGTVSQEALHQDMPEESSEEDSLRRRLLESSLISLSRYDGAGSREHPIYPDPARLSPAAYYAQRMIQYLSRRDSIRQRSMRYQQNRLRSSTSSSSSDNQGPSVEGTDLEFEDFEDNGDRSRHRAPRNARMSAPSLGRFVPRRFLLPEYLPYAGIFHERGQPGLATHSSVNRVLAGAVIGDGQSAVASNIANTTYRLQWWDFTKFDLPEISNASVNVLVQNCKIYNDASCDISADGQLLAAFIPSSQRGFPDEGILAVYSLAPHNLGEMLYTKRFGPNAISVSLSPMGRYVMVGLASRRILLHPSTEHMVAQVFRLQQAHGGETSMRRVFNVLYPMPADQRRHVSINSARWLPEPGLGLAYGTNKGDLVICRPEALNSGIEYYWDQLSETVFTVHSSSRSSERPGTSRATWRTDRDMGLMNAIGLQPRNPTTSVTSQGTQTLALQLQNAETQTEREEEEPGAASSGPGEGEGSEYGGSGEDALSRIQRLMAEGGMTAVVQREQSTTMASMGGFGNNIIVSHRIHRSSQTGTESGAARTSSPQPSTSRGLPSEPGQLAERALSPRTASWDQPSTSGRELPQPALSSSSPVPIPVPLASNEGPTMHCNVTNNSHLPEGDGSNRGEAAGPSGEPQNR

[2] = target: focal adhesion kinase (FAK), wild type, in SCC FAK-WT cells (UniProt Q00944); assay: as above

Substance | binding [1] | binding [2]
Dynactin 1 (Dctn1; also known as p150Glued) (from UniProt O08788 1-1281) | binds | 
FAK P875A/P881A (AA) mutant (from UniProt Q00944 1-1053) (enzyme) | binds | 
focal adhesion kinase (FAK), wild type, in SCC FAK-WT cells (from UniProt Q00944 1-1053) (enzyme) | binds | 
interferon-induced transmembrane protein 3 (IFITM3) (from UniProt Q9CQW9 1-137) | binds | binds
